# In article PMC7250858:
# By UniProt entry, the sequences of proteins in these tests, tags left out. Residues count along the entry.
# UniProt P78527, residues 3719-4015: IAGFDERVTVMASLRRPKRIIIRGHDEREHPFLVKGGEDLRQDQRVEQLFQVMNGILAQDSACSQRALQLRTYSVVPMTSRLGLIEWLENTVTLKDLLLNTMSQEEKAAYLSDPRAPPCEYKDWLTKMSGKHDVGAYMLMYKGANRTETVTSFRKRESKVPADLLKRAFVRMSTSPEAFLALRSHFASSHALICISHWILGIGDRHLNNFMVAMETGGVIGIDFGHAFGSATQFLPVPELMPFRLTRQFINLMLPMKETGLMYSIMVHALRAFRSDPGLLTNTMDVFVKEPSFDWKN
# UniProt Q8IWV7: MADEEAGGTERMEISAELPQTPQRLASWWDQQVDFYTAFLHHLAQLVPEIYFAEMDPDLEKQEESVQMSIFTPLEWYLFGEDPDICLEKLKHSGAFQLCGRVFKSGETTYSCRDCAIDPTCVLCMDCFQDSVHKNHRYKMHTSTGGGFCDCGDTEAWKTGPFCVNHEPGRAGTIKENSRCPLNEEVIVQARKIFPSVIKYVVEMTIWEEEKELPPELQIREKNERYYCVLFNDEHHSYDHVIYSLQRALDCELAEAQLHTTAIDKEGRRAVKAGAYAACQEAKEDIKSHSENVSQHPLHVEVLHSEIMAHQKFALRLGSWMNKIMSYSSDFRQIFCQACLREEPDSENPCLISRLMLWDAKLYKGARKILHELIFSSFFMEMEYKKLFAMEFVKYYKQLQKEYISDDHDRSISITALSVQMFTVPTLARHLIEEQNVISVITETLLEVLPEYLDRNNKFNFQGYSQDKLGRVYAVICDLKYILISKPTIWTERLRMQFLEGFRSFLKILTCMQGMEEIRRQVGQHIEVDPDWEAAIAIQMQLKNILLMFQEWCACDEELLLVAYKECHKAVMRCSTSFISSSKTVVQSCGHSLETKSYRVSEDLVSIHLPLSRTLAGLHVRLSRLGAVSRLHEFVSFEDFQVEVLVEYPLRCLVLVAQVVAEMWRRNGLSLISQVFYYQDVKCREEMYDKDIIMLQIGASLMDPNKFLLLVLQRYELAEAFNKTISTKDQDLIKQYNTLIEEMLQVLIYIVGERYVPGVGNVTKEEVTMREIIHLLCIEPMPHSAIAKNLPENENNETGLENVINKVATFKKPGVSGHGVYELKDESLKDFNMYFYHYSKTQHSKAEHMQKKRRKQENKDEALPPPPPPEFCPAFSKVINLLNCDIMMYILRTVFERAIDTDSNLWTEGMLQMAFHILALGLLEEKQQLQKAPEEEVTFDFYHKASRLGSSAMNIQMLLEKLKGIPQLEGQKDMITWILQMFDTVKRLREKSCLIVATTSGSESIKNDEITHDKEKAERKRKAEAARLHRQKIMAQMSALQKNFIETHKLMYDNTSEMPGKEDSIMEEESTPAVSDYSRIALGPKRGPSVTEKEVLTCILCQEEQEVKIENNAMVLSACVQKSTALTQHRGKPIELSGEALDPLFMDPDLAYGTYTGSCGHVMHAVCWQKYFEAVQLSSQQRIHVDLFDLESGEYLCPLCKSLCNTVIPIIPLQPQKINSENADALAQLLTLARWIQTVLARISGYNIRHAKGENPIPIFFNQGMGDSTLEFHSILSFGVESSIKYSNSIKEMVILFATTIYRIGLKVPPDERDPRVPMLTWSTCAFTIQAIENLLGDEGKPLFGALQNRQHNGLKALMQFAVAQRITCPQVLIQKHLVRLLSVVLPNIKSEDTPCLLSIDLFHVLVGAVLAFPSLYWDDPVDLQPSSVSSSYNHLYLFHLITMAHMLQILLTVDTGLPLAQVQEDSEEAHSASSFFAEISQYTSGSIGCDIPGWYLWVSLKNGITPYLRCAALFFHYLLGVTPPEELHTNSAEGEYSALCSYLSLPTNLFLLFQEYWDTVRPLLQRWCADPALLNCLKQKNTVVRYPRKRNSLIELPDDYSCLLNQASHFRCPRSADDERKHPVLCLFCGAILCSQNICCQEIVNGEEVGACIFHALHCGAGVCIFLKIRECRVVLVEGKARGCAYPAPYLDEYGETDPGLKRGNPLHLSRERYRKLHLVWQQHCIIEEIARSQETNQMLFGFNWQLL
# UniProt P19474: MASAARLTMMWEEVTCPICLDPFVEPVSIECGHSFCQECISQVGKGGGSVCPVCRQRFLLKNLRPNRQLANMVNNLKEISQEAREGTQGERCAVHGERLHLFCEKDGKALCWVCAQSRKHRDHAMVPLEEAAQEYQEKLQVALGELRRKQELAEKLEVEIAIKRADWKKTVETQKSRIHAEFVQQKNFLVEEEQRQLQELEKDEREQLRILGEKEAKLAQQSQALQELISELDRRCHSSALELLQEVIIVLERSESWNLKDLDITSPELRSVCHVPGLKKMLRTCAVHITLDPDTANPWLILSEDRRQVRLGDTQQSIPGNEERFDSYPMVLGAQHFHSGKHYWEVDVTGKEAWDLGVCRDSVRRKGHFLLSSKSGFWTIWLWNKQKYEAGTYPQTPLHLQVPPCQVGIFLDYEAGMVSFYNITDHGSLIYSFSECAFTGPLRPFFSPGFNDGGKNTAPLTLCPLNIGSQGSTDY
# These are yes or no findings as the source states them, for the method shown. In cells and extracts the contact can be indirect. A yes stands for co-enrichment or nearness to the bait. Other partners may have been found.
# Biological target: Flag-DNA-PKcs kinase domain (3719aa to 4015aa) fragment (UniProt P78527)
# Assay: affinity purification with mass spectrometry; mass spectrometry of the immunoprecipitation product of the Flag-DNA-PKcs kinase domain (3719-4015) fragment
row,Substance,binding
1,"HUWE1 (HECT, UBA, and WWE domain containing E3 ubiquitin protein ligase 1), endogenous (from UniProt Q7Z6Z7 1-4374) (enzyme)",binds
2,UBR1 (from UniProt Q8IWV7 1-1749) (enzyme),binds
3,TRIM21 (from UniProt P19474 1-475) (enzyme),binds
